# Reference: the supplement of paper PMC8728848
# This is one part of the list.
# B1: PX14343F-bfa-562-20-562 (Bacteroides fragilis) (protein)
# chain: CDDFLDSFPQDTVTNENFWKSKEDADKVLVDIYASLLPKDAIFFDEAMSDNAYLVWDWWGGAQQVANGSYTTSGEIPTNRWNGSYEVIRKCWFLLEGIEKIEDISEQDKNKIIGETYFMLAYNYYVLTSYFGDVPLVTKTLAIPESKQLVRTPKAEVVDYAINKLKEAAVMLEGLSQEKGRVTADACRFLIARMYLYNGDYSNVLETVKLLEGKYQLYREGDTPYEDLFSGVAENSCEVILSVVCDKRVGEIYTSHGGNGIMLLKGITGEDPYRGVTPSGSLVDAYPMADGRLIHEAGSSYDPKKPYEGRDPRFYQSIVYPTGQIKYLDVETGTVKERLYDPEDPTTVPEHQYNYSQPSATGYMWNKYIDYSVYAMNSVWDCTNDIIVFRYADVLLMKAEALLQTKGESAKEEVCNLIDQLRDRCSCGRVHRENYNSKDELMELLKNERRIELANEGLRYMDLIRWKDAEKNTIVTGVGLTGQMYGAYMRKDGVGKDDKTVDVDNTPRRYIETRYFNASKGYLFPIPQKERDLNPNLTQNPNW
# Experiments:
# Experiment in all cases: glycan array binding signal (z-score within array); higher = stronger binding
# Conditions in all cases: glycan notation: IUPAC condensed, linker removed
# [1] = molecular target: Fuc(a1-2)Gal(b1-4)GlcNAc(b1-3)Gal(b1-4)GlcNAc(b1-3)Gal(b1-4)GlcNAc
# Method in brief: (§1)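 Glycan array data came from 3228 arrays in the Consortium for Functional Glycomics database, and only arrays with an available protein sequence were kept. Glycan names were put into IUPAC-condensed notation, and columns mapping to the same glycan were averaged. The binding signal is a within-array Z-score, averaged across arrays of one protein sequence run at different concentrations or buffers and across linkers. A negative Z-score can be read as non-binding.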
# [2] = molecular target: Fuc(a1-2)Gal(b1-4)GlcNAc(b1-3)GalNAc
# Method in brief: as §1
# [3] = molecular target: Fuc(a1-2)Gal(b1-4)GlcNAc(b1-3)[Fuc(a1-2)Gal(b1-4)GlcNAc(b1-6)]GalNAc
# Method in brief: as §1
# [4] = molecular target: Fuc(a1-2)Gal(b1-4)GlcNAc(b1-3)[Fuc(a1-3)[Gal(b1-4)]GlcNAc(b1-6)]Gal(b1-4)Glc
# Method in brief: as §1
# [5] = molecular target: Fuc(a1-2)Gal(b1-4)GlcNAc(b1-6)GalNAc
# Method in brief: as §1
# [6] = molecular target: Fuc(a1-2)Gal(b1-4)GlcNAc6S
# Method in brief: as §1
# [7] = molecular target: Fuc(a1-2)Gal(b1-4)[Fuc(a1-3)]GlcNAc
# Method in brief: as §1
# [8] = molecular target: Fuc(a1-2)Gal(b1-4)[Fuc(a1-3)]GlcNAc(b1-2)Man(a1-3)[Fuc(a1-2)Gal(b1-4)[Fuc(a1-3)]GlcNAc(b1-2)Man(a1-6)]Man(b1-4)GlcNAc(b1-4)[Fuc(a1-6)]GlcNAc
# Method in brief: as §1
# [9] = molecular target: Fuc(a1-2)Gal(b1-4)[Fuc(a1-3)]GlcNAc(b1-2)[Fuc(a1-2)Gal(b1-4)[Fuc(a1-3)]GlcNAc(b1-4)]Man(a1-3)[Fuc(a1-2)Gal(b1-4)[Fuc(a1-3)]GlcNAc(b1-2)Man(a1-6)]Man(b1-4)GlcNAc(b1-4)GlcNAc
# Method in brief: as §1
# [10] = molecular target: Fuc(a1-2)Gal(b1-4)[Fuc(a1-3)]GlcNAc(b1-3)Gal(b1-4)[Fuc(a1-3)]GlcNAc
# Method in brief: as §1
# [11] = molecular target: Fuc(a1-2)Gal(b1-4)[Fuc(a1-3)]GlcNAc(b1-3)Gal(b1-4)[Fuc(a1-3)]GlcNAc(b1-3)Gal(b1-4)[Fuc(a1-3)]GlcNAc
# Method in brief: as §1
# [12] = molecular target: Fuc(a1-2)Gal(b1-4)[Fuc(a1-3)]GlcNAc(b1-3)GalNAc
# Method in brief: as §1
# [13] = molecular target: Fuc(a1-2)Gal(b1-4)[Fuc(a1-3)]GlcNAc(b1-3)[Neu5Ac(a2-6)Gal(b1-4)GlcNAc(b1-6)]Gal(b1-4)Glc
# Method in brief: as §1
# [14] = molecular target: Fuc(a1-2)Gal3S(b1-4)GlcNAc
# Method in brief: as §1
# [15] = molecular target: Fuc(a1-2)Gal6S(b1-3)GlcNAc
# Method in brief: as §1
# [16] = molecular target: Fuc(a1-2)Gal6S(b1-3)GlcNAc6S
# Method in brief: as §1
# Fuc(a1-2)Gal6S(b1-4)Glc = molecular target: Fuc(a1-2)Gal6S(b1-4)Glc
# Method in brief: as §1
# [17] = molecular target: Fuc(a1-2)Gal6S(b1-4)Glc6S
# Method in brief: as §1
# Fuc(a1-2)[Gal(a1-3)]Gal = molecular target: Fuc(a1-2)[Gal(a1-3)]Gal
# Method in brief: as §1
# [18] = molecular target: Fuc(a1-2)[Gal(a1-3)]Gal(b1-3)GalNAc
# Method in brief: as §1
# [19] = molecular target: Fuc(a1-2)[Gal(a1-3)]Gal(b1-3)GalNAc(b1-3)Gal(a1-4)Gal(b1-4)Glc
# Method in brief: as §1
# [20] = molecular target: Fuc(a1-2)[Gal(a1-3)]Gal(b1-3)GlcNAc
# Method in brief: as §1
# [21] = molecular target: Fuc(a1-2)[Gal(a1-3)]Gal(b1-3)GlcNAc(b1-2)Man(a1-3)[Fuc(a1-2)[Gal(a1-3)]Gal(b1-3)GlcNAc(b1-2)Man(a1-6)]Man(b1-4)GlcNAc(b1-4)GlcNAc
# Method in brief: as §1
# [22] = molecular target: Fuc(a1-2)[Gal(a1-3)]Gal(b1-3)GlcNAc(b1-2)Man(a1-3)[Fuc(a1-2)[Gal(a1-3)]Gal(b1-3)GlcNAc(b1-2)Man(a1-6)]Man(b1-4)GlcNAc(b1-4)[Fuc(a1-6)]GlcNAc
# Method in brief: as §1
# [23] = molecular target: Fuc(a1-2)[Gal(a1-3)]Gal(b1-3)GlcNAc(b1-3)GalNAc
# Method in brief: as §1
# [24] = molecular target: Fuc(a1-2)[Gal(a1-3)]Gal(b1-3)GlcNAc(b1-6)GalNAc
# Method in brief: as §1
# [25] = molecular target: Fuc(a1-2)[Gal(a1-3)]Gal(b1-4)Glc
# Method in brief: as §1
# [26] = molecular target: Fuc(a1-2)[Gal(a1-3)]Gal(b1-4)GlcNAc
# Method in brief: as §1
# [27] = molecular target: Fuc(a1-2)[Gal(a1-3)]Gal(b1-4)GlcNAc(b1-2)Man
# Method in brief: as §1
# [28] = molecular target: Fuc(a1-2)[Gal(a1-3)]Gal(b1-4)GlcNAc(b1-2)Man(a1-3)[Fuc(a1-2)[Gal(a1-3)]Gal(b1-4)GlcNAc(b1-2)Man(a1-6)]Man(b1-4)GlcNAc(b1-4)GlcNAc
# Method in brief: as §1
binder,measurement,setting,value
B1,glycan array binding signal (z-score),[1],-0.301
same,glycan array binding signal (z-score),[2],-1.07
same,glycan array binding signal (z-score),[3],0.316
same,glycan array binding signal (z-score),[4],-0.504
same,glycan array binding signal (z-score),[5],0.141
same,glycan array binding signal (z-score),[6],-0.073
same,glycan array binding signal (z-score),[7],0.085
same,glycan array binding signal (z-score),[8],-0.43
same,glycan array binding signal (z-score),[9],-0.3
same,glycan array binding signal (z-score),[10],-0.862
same,glycan array binding signal (z-score),[11],0.172
same,glycan array binding signal (z-score),[12],-0.396
same,glycan array binding signal (z-score),[13],-0.542
same,glycan array binding signal (z-score),[14],-1.05
same,glycan array binding signal (z-score),[15],-0.004
same,glycan array binding signal (z-score),[16],1.48
same,glycan array binding signal (z-score),Fuc(a1-2)Gal6S(b1-4)Glc,-0.173
same,glycan array binding signal (z-score),[17],0.012
same,glycan array binding signal (z-score),Fuc(a1-2)[Gal(a1-3)]Gal,0.618
same,glycan array binding signal (z-score),[18],0.323
same,glycan array binding signal (z-score),[19],0.051
same,glycan array binding signal (z-score),[20],-0.317
same,glycan array binding signal (z-score),[21],1.27
same,glycan array binding signal (z-score),[22],0.655
same,glycan array binding signal (z-score),[23],-0.362
same,glycan array binding signal (z-score),[24],0.287
same,glycan array binding signal (z-score),[25],-0.458
same,glycan array binding signal (z-score),[26],-0.1
same,glycan array binding signal (z-score),[27],-0.421
same,glycan array binding signal (z-score),[28],1.23

# Two entries from above, set out differently.
binder | measurement | setting | value
B1 | glycan array binding signal (z-score) | [10] | -0.862
same | glycan array binding signal (z-score) | [23] | -0.362
